Experimental data taken from patent US6448293B1, “Diphenyl ether compounds useful in therapy” (Pfizer Inc., priority 2000, dated 2002).
Some entries share one result that the patent states for a list of compounds.

Protein sequences, listed by entry. Tags and fused reporters are not part of them.
UniProt P31645, whole entry: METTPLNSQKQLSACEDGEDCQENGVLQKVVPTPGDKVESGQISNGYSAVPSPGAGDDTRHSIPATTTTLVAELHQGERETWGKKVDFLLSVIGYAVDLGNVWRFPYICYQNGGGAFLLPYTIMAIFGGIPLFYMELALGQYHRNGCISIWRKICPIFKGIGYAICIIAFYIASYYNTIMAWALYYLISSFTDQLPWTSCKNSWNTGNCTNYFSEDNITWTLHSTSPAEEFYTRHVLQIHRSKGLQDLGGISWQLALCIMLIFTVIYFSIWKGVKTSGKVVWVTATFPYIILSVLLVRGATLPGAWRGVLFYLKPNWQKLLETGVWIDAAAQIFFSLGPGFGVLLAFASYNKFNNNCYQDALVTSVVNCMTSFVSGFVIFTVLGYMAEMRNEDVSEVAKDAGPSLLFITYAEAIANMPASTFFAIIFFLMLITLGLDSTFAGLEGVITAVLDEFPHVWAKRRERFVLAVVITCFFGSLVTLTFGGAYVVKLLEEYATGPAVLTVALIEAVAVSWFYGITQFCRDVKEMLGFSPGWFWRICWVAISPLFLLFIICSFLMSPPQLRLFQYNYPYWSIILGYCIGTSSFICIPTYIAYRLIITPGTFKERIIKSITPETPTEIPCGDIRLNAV

Molecular target: T1, human serotonin transporter (hSERT) (Homo sapiens, UniProt P31645)
T1 construct: expressed in transfected cells; host or cells: HEK-293 (human embryonic kidney cells), stably transfected
Experiment: Inhibition of 3H-Serotonin uptake into HEK-293 cells stably transfected with hSERT
Assay type: cell-based
Conditions: for IC50: HEK-293 cells transfected with hSERT, 3H-Serotonin uptake, 5 minutes incubation, room temperature, read-out: serotonin re-uptake inhibition (SRI) IC50; for fold as potent in the inhibition of serotonin re-uptake than in the inhibition of dopamine re-uptake and noradrenaline re-uptake: selectivity of hSERT over both hDAT and hNET uptake inhibition; for fold as potent in the inhibition of serotonin re-uptake than in the inhibition of dopamine re-uptake or noradrenaline re-uptake: selectivity of hSERT over hDAT or hNET uptake inhibition
Protocol: A number of compounds were tested for biological activity by their ability to inhibit the uptake of serotonin by human serotonin transporters as follows.
Human embryonic kidney cells (HEK-293) stably transfected with either the human serotonin transporter (hSERT), noradrenaline transporter (hNET) or dopamine transporter (hDAT) were cultured under standard cell culture techniques (cells were grown at 37° C and 5% CO2 in DMEM-culture media (supplemented with 10% dialysed foetal calf serum (FCS), 2 mM 1-glutamine and 250 μg/ml geneticin)). Cells were harvested for the assay to yield a cell suspension of 750,000 cells/ml.
(i) Determination of inhibitor potency
All test compounds were dissolved in 100% DMSO and diluted down in assay buffer to give appropriate test concentrations. Assays were carried out in 96-well filter bottom plates. Cells (7500 cells/assay well) were pre-incubated in standard assay buffer containing either test compound, standard inhibitor or compound vehicle (1 % DMSO) for 5 minutes. Reactions were started by addition of either ^3H-Serotonin, ^3H-Noradrenaline or ^3H-Dopamine substrates. All reactions were carried out at room temperature in a shaking incubator. Incubation times were 5 minutes for the hSERT and hDAT assays and 15 minutes for the hNET assay. Reactions were terminated by removal of the reaction mixture using a vacuum manifold followed by rapid washing with ice cold assay buffer. The quantity of ^3H-substrate incorporated into the cells was then quantified.
Assay plates were dried in a microwave oven, scintillation fluid added, and radioactivity measured.
(iii) Standard Assay Buffer Composition:
Note: The pH of the buffer was adjusted to 7.40 with 1 M NaOH before addition of CaCI2 and pargyline.
(iv) Summary of Assay Parameters

Compound | IC50 [nM] | fold as potent in the inhibition of serotonin re-uptake than in the inhibition of dopamine re-uptake and noradrenaline re-uptake | fold as potent in the inhibition of serotonin re-uptake than in the inhibition of dopamine re-uptake or noradrenaline re-uptake
CSc1ccc(Oc2ccc(C(N)=O)cc2CN(C)C)cc1 [Example 91, 3-[(Dimethylamino)methyl]-4-[4-(methylsulfanyl)phenoxy]benzamide] | ≤ 100 | more than 100 fold | 
CSc1ccc(Oc2ccc(CC(N)=O)cc2CN(C)C)cc1 [Example 92, 2-{3-[(Dimethylamino)methyl]-4-[4-(methylsulfanyl)phenoxy]phenyl}acetamide] | ≤ 100 |  | more than 10 fold
CN(C)Cc1cc(C(N)=O)ccc1Oc1ccc(OC(F)(F)F)cc1 [Example 94] | ≤ 100 | more than 100 fold | 
CN(C)Cc1cc(C(N)=O)ccc1Oc1ccc(C(F)(F)F)cc1 [Example 95] | ≤ 100 | more than 100 fold | 
CN(C)Cc1ccc(C(N)=O)cc1Oc1ccc(OC(F)(F)F)cc1 [Example 98, 4-[(Dimethylamino)methyl]-3-[4-(trifluoromethoxy)phenoxy]benzamide] | ≤ 100 | more than 100 fold | 
CNC(=O)c1ccc(CN(C)C)c(Oc2ccc(OC(F)(F)F)cc2)c1 [Example 99, 4-[(dimethylamino)methyl]-N-methyl-3-[4-(trifluoromethoxy)phenoxy]benzamide] | ≤ 100 |  | 
CNC(=O)c1ccc(Oc2ccc(OC(F)(F)F)cc2)c(CN(C)C)c1 [Example 101] | ≤ 100 | more than 100 fold | 
CN(C)Cc1cc(C(=O)N(C)C)ccc1Oc1ccc(C(F)(F)F)cc1 [Example 106] | ≤ 100 |  | 
CN(C)Cc1cc(CN)ccc1Oc1ccc(OC(F)(F)F)cc1 [Example 110, N-{5-(Aminomethyl)-2-[4-(trifluoromethoxy)phenoxy]benzyl}-N,N-dimethylamine] | ≤ 100 | more than 100 fold | 
CN(C)Cc1cc(CN)ccc1Oc1ccc(C(F)(F)F)cc1 [Example 112] | ≤ 100 |  | 
CN(C)Cc1cc(NS(C)(=O)=O)ccc1Oc1ccc(C(F)(F)F)cc1 [Example 114, N-(3-[(Dimethylamino)methyl]-4-[4-(trifluoromethyl)phenoxy]phenyl} methanesulfonamide] | ≤ 100 | more than 100 fold | 
CN(C)Cc1cc(CNS(C)(=O)=O)ccc1Oc1ccc(C(F)(F)F)cc1 [Example 115] | ≤ 100 |  | more than 10 fold
CN(C)Cc1cc(NS(C)(=O)=O)ccc1Oc1ccc(OC(F)(F)F)cc1 [Example 116] | ≤ 100 | more than 100 fold | 
CN(C)Cc1cc(CNS(C)(=O)=O)ccc1Oc1ccc(OC(F)(F)F)cc1 [Example 117] | ≤ 100 | more than 100 fold | 
CN(C)Cc1ccc(CNS(C)(=O)=O)cc1Oc1ccc(OC(F)(F)F)cc1 [Example 120] | ≤ 100 | more than 100 fold | 
CNCc1cc(NS(C)(=O)=O)ccc1Oc1ccc(C(F)(F)F)cc1 [Example 121, N-{3-[(Methylamino)methyl]-4-[4-(trifluoromethyl)phenoxy]phenyl}-methanesulfonamide] | ≤ 100 | more than 100 fold | 
CN(C)Cc1cc(N(CCO)S(C)(=O)=O)ccc1Oc1ccc(C(F)(F)F)cc1 [Example 122, N-{3-[{Dimethylamino)methyl]-4-[4-(trifluoromethyl)phenoxy]phenyl}-N-(2-hydroxyethyl)methanesulfonamide] | ≤ 100 |  | more than 10 fold
CSc1ccc(Oc2ccc(NS(C)(=O)=O)cc2CN)cc1 [Example 125, N-{3-(Aminomethyl)-4-[4-(methylsulfanyl)phenoxy]phenyl}methanesulfonamide] | ≤ 100 |  | 
CNCc1cc(NS(C)(=O)=O)ccc1Oc1ccc(SC)cc1 [Example 128, N-{3-[(Methylamino)methyl]-4-[4-(methylsulfanyl)phenoxy]phenyl}methanesulfonamide] | ≤ 100 | more than 100 fold | 
CNCc1cc(N(CCO)S(C)(=O)=O)ccc1Oc1ccc(SC)cc1 [Example 130] | ≤ 100 | more than 100 fold | 

Compound | IC50 [nM] | fold as potent in the inhibition of serotonin re-uptake than in the inhibition of dopamine re-uptake and noradrenaline re-uptake | fold as potent in the inhibition of serotonin re-uptake than in the inhibition of dopamine re-uptake or noradrenaline re-uptake
CNCc1cc(NS(C)(=O)=O)ccc1Oc1ccc(SC)c(OC)c1 [Example 131] | ≤ 100 |  | 
CSc1ccc(Oc2ccc(N(CCO)S(C)(=O)=O)cc2CN(C)C)cc1 [Example 132, N-{3-[(Dimethylamino)methyl]-4-[4-(methylsulfanyl)phenoxy]phenyl}-N-(2-hydroxyethyl)methanesulfonamide] | ≤ 100 |  | 
COc1cc(Oc2ccc(NS(C)(=O)=O)cc2CN(C)C)ccc1SC [Example 133] | ≤ 100 |  | 
CSc1ccc(Oc2ccc(NS(C)(=O)=O)cc2CN(C)C)cc1C(F)(F)F [Example 134] | ≤ 100 |  | more than 10 fold
COCCS(=O)(=O)Nc1ccc(Oc2ccc(SC)cc2)c(CN(C)C)c1 [Example 137, N-{3-[(Dimethylamino)methyl]-4-[4-(methylsulfanyl)phenoxy]phenyl}-2-methoxyethanesulfonamide] | ≤ 100 |  | 
CCS(=O)(=O)Nc1ccc(Oc2ccc(SC)cc2)c(CN(C)C)c1 [Example 138, N-{3-[(Dimethylamino)methyl]-4-[4-(methylsulfanyl)phenoxy]phenyl}-ethanesulfonamide] | ≤ 100 |  | 
CSc1ccc(Oc2ccc(NS(=O)(=O)C(C)C)cc2CN(C)C)cc1 [Example 139, N-{3-[(Dimethylamino)methyl]-4-[4-(methylsulfanyl)phenoxy]phenyl}-2-propanesulfonamide] | ≤ 100 |  | 
CSc1ccc(Oc2ccc(OC(F)(F)F)cc2)c(CN(C)C)c1 [Example 141, N,N-Dimethyl-N-{5-(methylsulfanyl)-2-[4-(trifluoromethoxy)phenoxy]benzyl}amine] | ≤ 100 | more than 100 fold | 
CSc1ccc(CN(C)C)c(Oc2ccc(OC(F)(F)F)cc2)c1 [Example 142] | ≤ 100 |  | 
CN(C)Cc1cc(S(C)(=O)=O)ccc1Oc1ccc(OC(F)(F)F)cc1 [Example 145, N,N-Dimethyl-N-{5-(methylsulfonyl)-2-[4-(trifluoromethoxy)phenoxy]benzyl}amine] | ≤ 100 | more than 100 fold | 
CN(C)Cc1cc([S+](C)[O-])ccc1Oc1ccc(OC(F)(F)F)cc1 (stereo not drawn) [Example 146, N,N-dimethyl-N-{5-(methylsulfinyl)-2-(4-(trifluoromethoxy)phenoxy]benzyl}amine] | ≤ 100 | more than 100 fold | 
CN(C)Cc1cc([S+](C)[O-])ccc1Oc1ccc(C(F)(F)F)cc1 (stereo not drawn) [Example 147] | ≤ 100 | more than 100 fold | 
CC[S+]([O-])c1ccc(CN(C)C)c(Oc2ccc(C(F)(F)F)cc2)c1 (stereo not drawn) [Example 148] | ≤ 100 | more than 100 fold | 
CN(C)Cc1ccc([S+](C)[O-])cc1Oc1ccc(OC(F)(F)F)cc1 (stereo not drawn) [Example 149, N,N-Dimethyl-N-{4-(methylsulfinyl)-2-[4-(trifluoromethoxy)phenoxy]benzyl}amine] | ≤ 100 |  | 
CN(C)Cc1cc(CO)ccc1Oc1ccc(C(F)(F)F)cc1 [Example 154, {3-[(Dimethylamino)methyl]-4-[4-(trifluoromethyl)phenoxy]phenyl}methanol] | ≤ 100 |  | 
CSc1ccc(Oc2ccc(CO)cc2CN(C)C)cc1 [Example 155] | ≤ 100 |  | 
CNCc1cc(CO)ccc1Oc1ccc(SC)cc1 [Example 156, {3-[(Methylamino)methyl]-4-[4-(methylsulfanyl)phenoxy]phenyl}methanol] | ≤ 100 | more than 100 fold | 
CN(C)Cc1cc(CO)ccc1Oc1ccc(OC(F)(F)F)cc1 [Example 157] | ≤ 100 | more than 100 fold | 
CSc1ccc(Oc2ccc(C(=O)O)cc2CN(C)C)cc1 [Example 158, 3-[(Dimethylamino)methyl]-4-[4-(methylsulfanyl)phenoxy]benzoic acid] | ≤ 100 |  | 
